The list is a part of this screen's results and no random one: it gathers tests that were run many times, whatever their T/C, doses with no T/C, and many T/C values between a quarter and a half above the control. Further doses and runs are listed elsewhere. T/C is the treated group as % of the vehicle group. Some doses have a count of surviving animals in place of a T/C: the source holds a T/C of zero for them, seemingly a mark for toxic or unscored doses. Some survivor counts are full or nearly so, which does not show that the dose was tolerated: the source hardly ever lists a survival T/C far under the control, and the zero likely stands for such cases as well. Counts of survivors are from the toxicity check (mostly the fifth day) where no day follows; animals may have died later. Schedule codes are those of the source, read here as Q, the interval in days (D) or hours (H), X, the number of doses. Some doses were run more than once; the results are listed from low to high. Where survival is the endpoint, the PubChem record calls one and a half times the control and up active, and a quarter to a half above the control has no call in these data; cut-offs in other NCI protocols can differ. Additions like (4×) say how often a value occurs here. Some T/C values are followed by the survivors on the day toxicity was checked, most often the fifth; where none is given, no animal had died by that day.

The test system of this assay is BDF1 mice, P388 leukemia ip, median survival T/C. In words: NCI In Vivo Anticancer Drug Screen. Data for tumor model P388 Leukemia (intraperitoneal) in B6D2F1 (BDF1) mice. The settings on record: T/C endpoint: median survival time, higher T/C = longer survival. An outline of the steps: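 Read-out is survival of treated animals expressed relative to the vehicle group, as a T/C ratio.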

Setting [1] is: dose: 6.25 mg/kg/injection, schedule: Q01DX009 (ip), vehicle: Klucel (hydroxypropylcellulose) (HPC).
Where [2] appears, read: dose: 25.0 mg/kg/injection, schedule: Q01DX009 (ip), vehicle: Klucel (hydroxypropylcellulose) (HPC).
Where [3] appears, read: dose: 400.0 mg/kg/injection, schedule: Q04DX003 (ip), vehicle: Klucel (hydroxypropylcellulose) (HPC).
Where [4] appears, read: dose: 50.0 mg/kg/injection, schedule: Q01DX009 (ip), vehicle: saline with Tween-80.
[5] abbreviates: dose: 12.5 mg/kg/injection, schedule: Q04DX003 (ip), vehicle: saline.
Setting [6] is: dose: 25.0 mg/kg/injection, schedule: Q04DX003 (ip), vehicle: saline.
[7] abbreviates: dose: 100.0 mg/kg/injection, schedule: Q04DX003 (ip), vehicle: saline.
Where [8] appears, read: dose: 200.0 mg/kg/injection, schedule: Q04DX003 (ip), vehicle: saline.
Setting [9] is: dose: 25.0 mg/kg/injection, schedule: Q01DX009 (ip), vehicle: saline with Tween-80.

As to `Cc1ccc([I+]c2ccc(C)cc2C)c(C)c1`, the survivor count (dose: 3.12 mg/kg/injection, schedule: Q01DX009 (ip), vehicle: Klucel (hydroxypropylcellulose) (HPC)) is 6 of 6; the survivor count (dose: 6.0 mg/kg/injection, schedule: Q01DX009 (ip), vehicle: Klucel (hydroxypropylcellulose) (HPC)) is listed as 2 of 6; the survivor count under setting [1] is on record as 6 of 6; the survivor count (dose: 12.0 mg/kg/injection, schedule: Q01DX009 (ip), vehicle: Klucel (hydroxypropylcellulose) (HPC)) was 0 of 6 and 6 of 6; the survivor count (dose: 15.0 mg/kg/injection, schedule: Q04DX003 (ip), vehicle: Klucel (hydroxypropylcellulose) (HPC)) is listed as 3 of 5; the survivor count under setting [2] is 1 of 6. In addition, the survivor count by setting is: (dose: 25.0 mg/kg/injection, schedule: Q04DX003 (ip), vehicle: Klucel (hydroxypropylcellulose) (HPC)) 2 of 6; (dose: 50.0 mg/kg/injection, schedule: Q01DX009 (ip), vehicle: Klucel (hydroxypropylcellulose) (HPC)) 0 of 6; (dose: 50.0 mg/kg/injection, schedule: Q04DX003 (ip), vehicle: Klucel (hydroxypropylcellulose) (HPC)) 0 of 6; (dose: 75.0 mg/kg/injection, schedule: Q01DX009 (ip), vehicle: Klucel (hydroxypropylcellulose) (HPC)) 0 of 6; (dose: 100.0 mg/kg/injection, schedule: Q04DX003 (ip), vehicle: Klucel (hydroxypropylcellulose) (HPC)) 0 of 6; (dose: 200.0 mg/kg/injection, schedule: Q04DX003 (ip), vehicle: Klucel (hydroxypropylcellulose) (HPC)) 0 of 6. Moreover, under setting [3], the survivor count is reported as 0 of 6.
As to `Cn1c2ccccc2c(=S)c2ccccc21`, the survivor count (dose: 400.0 mg/kg/injection, schedule: Q01DX001 (ip), vehicle: saline with Tween-80) is 6 of 6.
As to `C=C(C)[C@@H]1CC[C@]2(CO)CC[C@]3(C)[C@H](CC[C@@H]4[C@@]5(C)CC[C@H](O)C(C)(C)[C@@H]5CC[C@]43C)[C@@H]12`, the survivor count (dose: 300.0 mg/kg/injection, schedule: Q01DX009 (ip), vehicle: other) is given as 3 of 3.
Regarding `COc1ccc(C2c3cc4c(c(OC)c3CC3OCC(=O)C32)OCO4)cc1OC` (stereo unspecified), the T/C is, setting by setting: (dose: 50.0 mg/kg/injection, schedule: Q01DX001 (ip), vehicle: other) 126 % of control; (dose: 50.0 mg/kg/injection, schedule: Q01DX010 (ip), vehicle: other) 136 % of control; (dose: 100.0 mg/kg/injection, schedule: Q01DX001 (ip), vehicle: other) 131 % of control. Further, the survivor count (dose: 358.0 mg/kg/injection, schedule: Q01DX010 (ip), vehicle: saline) is 5 of 6.
`C[C@]12CCC(=O)C=C1CC[C@@H]1C2=CC[C@@]2(C)[C@H]1CC[C@]2(C)O`: the survivor count is, setting by setting: under setting [1], 6 of 6; (dose: 12.5 mg/kg/injection, schedule: Q01DX009 (ip), vehicle: Klucel (hydroxypropylcellulose) (HPC)) 6 of 6; under setting [2], 6 of 6; (dose: 100.0 mg/kg/injection, schedule: Q01DX009 (ip), vehicle: Klucel (hydroxypropylcellulose) (HPC)) 6 of 6; under setting [3], 3 of 6.
For `CCOC(=O)Oc1c(OC)cc(C(=O)O[C@@H]2C[C@@H]3CN4CCc5c([nH]c6cc(OC)ccc56)[C@H]4C[C@@H]3[C@H](C(=O)OC)[C@H]2OC)cc1OC`, the survivor count is, setting by setting: under setting [4], 5 of 6; (dose: 100.0 mg/kg/injection, schedule: Q01DX009 (ip), vehicle: saline with Tween-80) 6 of 6.
Consider `CC(C)(C#N)Nc1ccccc1`, for which the survivor count (dose: 12.5 mg/kg/injection, schedule: Q01DX009 (ip), vehicle: saline with Tween-80) is 2 of 6.
For `CC(=O)NC1=C(N2CC2C)C(=O)C(NC(C)=O)=C(N2CC2C)C1=O` (stereo unspecified), the T/C (dose: 2.5 mg/kg/injection, schedule: Q01DX009 (ip), vehicle: saline) is 125 and 142 % of control; the T/C (dose: 10.0 mg/kg/injection, schedule: Q04DX003 (ip), vehicle: saline) is 131 % of control; the T/C under setting [5] is 136 % of control; the T/C under setting [6] is 127 % of control; the T/C (dose: 37.5 mg/kg/injection, schedule: Q04DX003 (ip), vehicle: saline) was 130 % of control. The survivor count runs as follows: (dose: 10.0 mg/kg/injection, schedule: Q01DX009 (ip), vehicle: saline) 6 of 6; under setting [7], 5 of 6; under setting [8], 3 of 6.
Consider `C[C@H](N)[C@H](O)c1cccc(O)c1`, for which the survivor count (dose: 50.0 mg/kg/injection, schedule: Q01DX005 (ip), vehicle: saline) is reported as 3 of 5; the survivor count (dose: 100.0 mg/kg/injection, schedule: Q01DX005 (ip), vehicle: saline) is 3 of 5; the survivor count (dose: 200.0 mg/kg/injection, schedule: Q01DX005 (ip), vehicle: saline) is on record as 2 of 5.
For `O=C1C2CC=CCC2C(=O)N1SC(Cl)(Cl)Cl` (stereo unspecified), under setting [9], the survivor count is given as 2 of 6.
As for `O=C(/C=C(\Cl)C(=O)NO)NO`, the T/C by setting is: (dose: 25.0 mg/kg/injection, schedule: Q01DX009 (ip), vehicle: saline) 131 % of control; (dose: 50.0 mg/kg/injection, schedule: Q01DX009 (ip), vehicle: saline) 127 % of control; (dose: 66.0 mg/kg/injection, schedule: Q01DX009 (ip), vehicle: saline) 127 and 131 % of control [5 of 6 alive]; (dose: 100.0 mg/kg/injection, schedule: Q01DX009 (ip), vehicle: saline) 127 % of control (2×); (dose: 150.0 mg/kg/injection, schedule: Q01DX009 (ip), vehicle: saline) 127 and 145 % of control [4 of 6 alive].
As for `COc1cc(C=Nc2ccc(C(=O)O)cc2)ccc1N(CCCl)CCCl`, the T/C was 142 % of control (dose: 3.0 mg/kg/injection, schedule: Q04DX003 (ip), vehicle: saline with Tween-80); 141 % of control (dose: 5.0 mg/kg/injection, schedule: Q04DX003 (ip), vehicle: saline with Tween-80); 141 % of control under setting [9]; 137 % of control [5 of 6 alive] under setting [4].
For the compound `CC1(C)N=C(N)N=C(N)N1c1ccc(CCCCc2ccc(S(=O)(=O)F)cc2)cc1`, the T/C is 145 % of control (dose: 8.0 mg/kg/injection, schedule: Q01DX009 (ip), vehicle: saline) and 145 % of control (dose: 18.0 mg/kg/injection, schedule: Q01DX009 (ip), vehicle: saline).
Take `CCCCCCCCCCCc1n(Cc2ccccc2)cc[n+]1C`: the survivor count is 6 of 6 (dose: 6.0 mg/kg/injection, schedule: Q04DX003 (ip), vehicle: saline); 3 of 6 under setting [5]; 0 of 6 under setting [6]; 0 of 6 (dose: 50.0 mg/kg/injection, schedule: Q04DX003 (ip), vehicle: saline); 0 of 6 under setting [7]; 0 of 6 under setting [8]. In addition, the survivor count (dose: 400.0 mg/kg/injection, schedule: Q04DX003 (ip), vehicle: saline) is 0 of 6.
For the compound `Cc1ccc(Nc2nc(N)nc(N)c2N)cc1Cl`, the survivor count was 6 of 6 under setting [4] and 6 of 6 (dose: 75.0 mg/kg/injection, schedule: Q01DX009 (ip), vehicle: saline with Tween-80).
Regarding `CC(Br)C1(c2cccc([N+](=O)[O-])c2)OCCO1` (stereo unspecified), the survivor count by setting is: (dose: 200.0 mg/kg/injection, schedule: Q01DX001 (ip), vehicle: Klucel (hydroxypropylcellulose) (HPC)) 1 of 6; (dose: 400.0 mg/kg/injection, schedule: Q01DX001 (ip), vehicle: Klucel (hydroxypropylcellulose) (HPC)) 0 of 6.

(Values after PubChem BioAssay AID328 (DTP/NCI, 2004).)
